According to doi:10.1101/2024.11.01.621520:
These are yes or no findings as the source states them, for the method shown. Binding seen in cells or lysates may run through a third protein. Some results given as binding are weak or reduced against the parent protein; the word gives no strength.

Sequences of proteins named here, by UniProt entry; tags and fusion partners are left off. Residues count along the entry.
UniProt P10275: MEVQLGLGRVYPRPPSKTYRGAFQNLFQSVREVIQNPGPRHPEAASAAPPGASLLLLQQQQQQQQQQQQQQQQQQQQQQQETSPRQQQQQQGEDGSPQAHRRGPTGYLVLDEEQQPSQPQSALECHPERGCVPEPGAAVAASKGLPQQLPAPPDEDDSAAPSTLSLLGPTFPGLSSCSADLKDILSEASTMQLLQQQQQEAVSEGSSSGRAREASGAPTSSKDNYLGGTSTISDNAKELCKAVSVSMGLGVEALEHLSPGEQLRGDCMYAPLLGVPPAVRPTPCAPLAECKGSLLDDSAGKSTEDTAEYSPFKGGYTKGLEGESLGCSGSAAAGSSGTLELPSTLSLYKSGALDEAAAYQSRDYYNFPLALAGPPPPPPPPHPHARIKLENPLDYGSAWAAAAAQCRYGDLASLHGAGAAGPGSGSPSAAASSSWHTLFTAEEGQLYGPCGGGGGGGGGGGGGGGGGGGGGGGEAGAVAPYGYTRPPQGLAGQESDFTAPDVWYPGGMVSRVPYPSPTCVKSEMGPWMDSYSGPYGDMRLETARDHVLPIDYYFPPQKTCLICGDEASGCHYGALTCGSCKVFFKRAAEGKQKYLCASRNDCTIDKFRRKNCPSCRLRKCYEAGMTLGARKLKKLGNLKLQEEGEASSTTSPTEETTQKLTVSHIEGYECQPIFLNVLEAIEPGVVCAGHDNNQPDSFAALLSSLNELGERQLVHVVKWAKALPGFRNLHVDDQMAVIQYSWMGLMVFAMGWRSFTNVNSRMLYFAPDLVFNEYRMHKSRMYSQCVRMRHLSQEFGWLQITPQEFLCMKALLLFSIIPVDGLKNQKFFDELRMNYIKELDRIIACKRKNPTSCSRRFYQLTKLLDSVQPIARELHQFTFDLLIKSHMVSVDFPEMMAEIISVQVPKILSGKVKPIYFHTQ
UniProt Q13283: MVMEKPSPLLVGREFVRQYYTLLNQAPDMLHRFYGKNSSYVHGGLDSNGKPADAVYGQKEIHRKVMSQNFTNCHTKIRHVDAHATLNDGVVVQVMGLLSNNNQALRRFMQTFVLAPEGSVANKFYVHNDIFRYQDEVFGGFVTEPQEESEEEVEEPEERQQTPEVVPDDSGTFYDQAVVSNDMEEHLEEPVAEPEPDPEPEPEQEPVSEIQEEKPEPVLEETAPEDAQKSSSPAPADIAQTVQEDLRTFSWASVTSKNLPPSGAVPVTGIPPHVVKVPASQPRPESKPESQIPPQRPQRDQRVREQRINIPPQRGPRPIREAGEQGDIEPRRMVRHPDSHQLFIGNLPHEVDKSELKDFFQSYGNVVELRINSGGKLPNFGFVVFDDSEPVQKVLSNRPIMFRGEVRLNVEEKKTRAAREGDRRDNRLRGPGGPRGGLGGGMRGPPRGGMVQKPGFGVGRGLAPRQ
UniProt P24593, residues 21-272: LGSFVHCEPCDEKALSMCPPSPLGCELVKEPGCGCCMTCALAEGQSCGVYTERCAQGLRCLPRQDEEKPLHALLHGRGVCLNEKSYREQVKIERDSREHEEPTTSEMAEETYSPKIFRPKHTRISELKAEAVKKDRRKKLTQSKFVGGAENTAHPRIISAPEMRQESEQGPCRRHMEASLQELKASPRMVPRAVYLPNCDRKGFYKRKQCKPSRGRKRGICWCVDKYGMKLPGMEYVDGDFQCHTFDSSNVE

Assays:
[1] = biological target: androgen receptor (human (endogenous in MCF7Aro-LetR and MCF7)) (UniProt P10275); assay: co-IP
[2] = biological target: G3BP1 (human (endogenous in MCF7Aro-LetR and MCF7)) (UniProt Q13283); assay: co-IP

G3BP1 (from UniProt Q13283 1-466)
binding [1]: binds

Insulin-like growth factor-binding protein 5 (from UniProt P24593 21-272)
binding [1]: binds

androgen receptor (from UniProt P10275 1-920)
binding [2]: binds
